No constants are given. Whether binding was seen depends on the method and setting. A result given as binding can be weak or reduced; the word gives no strength.
B1: ΔN22 chlamydial MreB (domain or fragment, UniProt O84715 23-366)
chain: GRFDRVFNFFSGNVGIDLGTANTLVYVRGRGIVLSEPSVVAVDAQTHAVLAVGHKAKAMLGKTPRKIVAVRPMKDGVIADFEIAEGMLKALIKRVTPARSMFRPKILIAVPSGITGVEKRAVEDSALHAGAQEVILIEEPMAAAIGVDLPVHEPAASMIIDIGGGTTEIAIISLGGIVESRSLRIAGDEFDECIINYMRRTYNLMIGPRTAEEIKITIGSAYPLGDQELEMEVRGRDQVAGLPITKRINSVEIRECLAEPIQQIIECVRLTLEKCPPELSADLVERGMVLAGGGALIKGLDKALSKNTGLSVITAPHPLLAVCLGTGKALEHLDQLKKRKESLV
B2: full-length chlamydial MreB (protein, UniProt O84715 1-366)
chain: MSPYRSLYKIKHLSNRLYNKALGRFDRVFNFFSGNVGIDLGTANTLVYVRGRGIVLSEPSVVAVDAQTHAVLAVGHKAKAMLGKTPRKIVAVRPMKDGVIADFEIAEGMLKALIKRVTPARSMFRPKILIAVPSGITGVEKRAVEDSALHAGAQEVILIEEPMAAAIGVDLPVHEPAASMIIDIGGGTTEIAIISLGGIVESRSLRIAGDEFDECIINYMRRTYNLMIGPRTAEEIKITIGSAYPLGDQELEMEVRGRDQVAGLPITKRINSVEIRECLAEPIQQIIECVRLTLEKCPPELSADLVERGMVLAGGGALIKGLDKALSKNTGLSVITAPHPLLAVCLGTGKALEHLDQLKKRKESLV

What was measured:
Assay in all cases: two-hybrid
[1] = biological target: N-terminal region of FtsK lacking its ATPase domain (Chlamydia (printed: chlamydial))
[2] = biological target: chlamydial RodZ (Chlamydia (printed: chlamydial))
[3] = biological target: full-length chlamydial FtsK (Chlamydia (printed: chlamydial))

Row | Binder | binding [1] | binding [2] | binding [3]
1 | B1 | no binding | no binding | no binding
2 | B2 | binds | binds | binds

— doi:10.1101/697953
